Source: paper PMC5326618
Results are given in words; binding and its absence hold for the method and conditions named. Binding seen in cells or lysates may run through a third protein. Some results given as binding are weak or reduced against the parent protein; the word gives no strength. Sequences can lack the tags named with a protein. Values belong to the molecule of their own block, whether it stands above or below them.

By UniProt entry, the sequences of proteins in these tests, tags left out.
UniProt Q13547: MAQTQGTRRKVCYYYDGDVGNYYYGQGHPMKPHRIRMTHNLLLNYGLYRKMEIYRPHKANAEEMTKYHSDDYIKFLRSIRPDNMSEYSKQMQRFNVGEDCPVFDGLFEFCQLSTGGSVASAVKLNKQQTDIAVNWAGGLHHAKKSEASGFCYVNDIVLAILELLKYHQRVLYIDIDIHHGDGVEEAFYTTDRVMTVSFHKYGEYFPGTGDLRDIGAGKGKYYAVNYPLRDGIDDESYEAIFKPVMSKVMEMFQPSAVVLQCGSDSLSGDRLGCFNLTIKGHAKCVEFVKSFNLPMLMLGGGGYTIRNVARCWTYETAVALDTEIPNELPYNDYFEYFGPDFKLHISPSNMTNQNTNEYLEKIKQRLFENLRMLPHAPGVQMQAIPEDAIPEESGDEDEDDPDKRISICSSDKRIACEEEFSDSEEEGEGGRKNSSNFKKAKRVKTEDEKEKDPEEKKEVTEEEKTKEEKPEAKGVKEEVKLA
UniProt Q92993: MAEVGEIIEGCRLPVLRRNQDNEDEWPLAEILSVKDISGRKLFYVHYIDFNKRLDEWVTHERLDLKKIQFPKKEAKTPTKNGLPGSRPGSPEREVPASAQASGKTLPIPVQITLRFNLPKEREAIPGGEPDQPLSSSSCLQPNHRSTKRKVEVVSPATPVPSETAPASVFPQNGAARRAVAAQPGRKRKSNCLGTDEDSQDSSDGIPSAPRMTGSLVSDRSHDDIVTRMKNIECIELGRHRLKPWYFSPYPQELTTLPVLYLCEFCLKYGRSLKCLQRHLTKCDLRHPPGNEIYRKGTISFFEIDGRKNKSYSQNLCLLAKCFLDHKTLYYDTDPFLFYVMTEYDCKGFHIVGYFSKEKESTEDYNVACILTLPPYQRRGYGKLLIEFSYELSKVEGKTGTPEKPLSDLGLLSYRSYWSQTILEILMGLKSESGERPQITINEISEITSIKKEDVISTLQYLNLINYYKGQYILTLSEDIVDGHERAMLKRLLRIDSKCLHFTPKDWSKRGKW

Key:
[1] = biological target: T1, Flag-UHRF2 (full-length UHRF2) (UniProt Q96PU4); assay: co-IP; HEK293 cells 48 h after transfection, NP40 lysis buffer; whole cell extracts immunoprecipitated overnight at 4°C with anti-Flag antibodies, Western blot
T1 sequence: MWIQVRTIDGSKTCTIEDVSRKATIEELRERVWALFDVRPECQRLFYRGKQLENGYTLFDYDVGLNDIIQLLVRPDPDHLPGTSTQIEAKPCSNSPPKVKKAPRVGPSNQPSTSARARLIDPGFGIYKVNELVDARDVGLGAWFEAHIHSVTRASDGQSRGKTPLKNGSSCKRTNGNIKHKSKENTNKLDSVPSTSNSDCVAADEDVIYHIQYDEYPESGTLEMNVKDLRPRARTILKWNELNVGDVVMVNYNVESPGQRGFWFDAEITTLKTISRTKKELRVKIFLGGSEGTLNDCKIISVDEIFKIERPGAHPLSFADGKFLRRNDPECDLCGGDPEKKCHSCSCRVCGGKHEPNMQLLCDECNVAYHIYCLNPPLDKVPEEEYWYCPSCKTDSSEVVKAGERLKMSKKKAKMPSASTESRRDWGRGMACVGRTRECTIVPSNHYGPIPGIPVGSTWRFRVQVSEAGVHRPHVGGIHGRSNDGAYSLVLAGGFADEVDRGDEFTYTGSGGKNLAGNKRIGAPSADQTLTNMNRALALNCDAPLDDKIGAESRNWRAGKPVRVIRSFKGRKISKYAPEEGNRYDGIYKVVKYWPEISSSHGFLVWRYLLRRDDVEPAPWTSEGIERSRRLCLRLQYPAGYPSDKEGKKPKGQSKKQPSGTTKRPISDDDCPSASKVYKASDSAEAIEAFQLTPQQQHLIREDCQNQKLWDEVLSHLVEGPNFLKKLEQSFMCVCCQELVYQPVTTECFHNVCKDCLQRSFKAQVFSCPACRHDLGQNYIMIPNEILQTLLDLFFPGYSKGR

[2] = biological target: HDAC1 (human (endogenous in HEK293)) (UniProt Q13547); assay: co-IP; reciprocal: HEK293 cells transfected with the indicated plasmids, NP40 lysis buffer; lysates subjected to HDAC1 immunoprecipitation overnight at 4°C, Western blot
[3] = biological target: TIP60 (human (endogenous in HEK293)) (UniProt Q92993); assay: co-IP; reciprocal: HEK293 cells transfected with plasmids as shown, NP40 lysis buffer; lysates immunoprecipitated overnight at 4°C with anti-TIP60 antibodies, Western blot

binding [1]: binds
Molecule: TIP60 (from UniProt Q92993 1-513)

binding [1]: binds
Molecule: HDAC1 (from UniProt Q13547 1-482)

binding [2]: binds
binding [3]: binds
B1: Flag-UHRF2 (full-length UHRF2) (protein, UniProt Q96PU4 1-802)
chain: T1 sequence
